Values quoted from earlier work, collected in patent US20220170944A1, “MATERIALS AND METHODS FOR IDENTIFYING AND TREATING EOSINOPHILIC DISORDERS” (The Regents of the University of California, priority 2019, published 2022).
For at least one compound, name, drawing or mass did not settle the structure.

Settings: adults with NASH; cited from earlier work

CCc1ccc(CCOc2ccc(CC3SC(=O)NC3=O)cc2)nc1 (stereo not shown) [Pioglitazone, pioglitazone]
resolution of NASH, patients: up to 51%
